# Measurements from PMC12199517.
# The chains behind the UniProt entries cited, without tags or fusion partners.
# UniProt Q8C6M1: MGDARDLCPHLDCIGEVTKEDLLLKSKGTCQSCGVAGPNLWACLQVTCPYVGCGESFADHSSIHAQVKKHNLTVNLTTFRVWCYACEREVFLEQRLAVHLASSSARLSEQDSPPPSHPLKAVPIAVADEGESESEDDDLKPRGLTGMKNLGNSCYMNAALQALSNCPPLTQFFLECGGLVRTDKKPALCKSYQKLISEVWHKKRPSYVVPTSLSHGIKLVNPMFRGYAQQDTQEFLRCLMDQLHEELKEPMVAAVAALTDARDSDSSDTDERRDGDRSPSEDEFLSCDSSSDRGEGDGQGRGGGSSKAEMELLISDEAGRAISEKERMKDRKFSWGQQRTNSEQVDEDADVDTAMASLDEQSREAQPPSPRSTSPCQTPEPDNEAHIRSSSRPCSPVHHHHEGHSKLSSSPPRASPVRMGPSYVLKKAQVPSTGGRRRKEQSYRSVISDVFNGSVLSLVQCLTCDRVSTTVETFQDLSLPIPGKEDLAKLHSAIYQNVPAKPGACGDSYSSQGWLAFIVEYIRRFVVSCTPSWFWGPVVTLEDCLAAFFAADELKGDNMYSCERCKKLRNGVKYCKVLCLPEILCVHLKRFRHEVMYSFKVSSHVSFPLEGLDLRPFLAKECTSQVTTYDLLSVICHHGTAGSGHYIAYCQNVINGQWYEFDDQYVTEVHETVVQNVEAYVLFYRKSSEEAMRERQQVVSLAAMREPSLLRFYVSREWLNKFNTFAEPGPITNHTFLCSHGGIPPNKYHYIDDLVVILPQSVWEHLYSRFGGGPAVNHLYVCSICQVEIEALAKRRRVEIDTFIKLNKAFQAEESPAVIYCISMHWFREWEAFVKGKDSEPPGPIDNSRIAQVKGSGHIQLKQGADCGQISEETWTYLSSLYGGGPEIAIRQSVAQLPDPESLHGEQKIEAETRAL
# UniProt P42227: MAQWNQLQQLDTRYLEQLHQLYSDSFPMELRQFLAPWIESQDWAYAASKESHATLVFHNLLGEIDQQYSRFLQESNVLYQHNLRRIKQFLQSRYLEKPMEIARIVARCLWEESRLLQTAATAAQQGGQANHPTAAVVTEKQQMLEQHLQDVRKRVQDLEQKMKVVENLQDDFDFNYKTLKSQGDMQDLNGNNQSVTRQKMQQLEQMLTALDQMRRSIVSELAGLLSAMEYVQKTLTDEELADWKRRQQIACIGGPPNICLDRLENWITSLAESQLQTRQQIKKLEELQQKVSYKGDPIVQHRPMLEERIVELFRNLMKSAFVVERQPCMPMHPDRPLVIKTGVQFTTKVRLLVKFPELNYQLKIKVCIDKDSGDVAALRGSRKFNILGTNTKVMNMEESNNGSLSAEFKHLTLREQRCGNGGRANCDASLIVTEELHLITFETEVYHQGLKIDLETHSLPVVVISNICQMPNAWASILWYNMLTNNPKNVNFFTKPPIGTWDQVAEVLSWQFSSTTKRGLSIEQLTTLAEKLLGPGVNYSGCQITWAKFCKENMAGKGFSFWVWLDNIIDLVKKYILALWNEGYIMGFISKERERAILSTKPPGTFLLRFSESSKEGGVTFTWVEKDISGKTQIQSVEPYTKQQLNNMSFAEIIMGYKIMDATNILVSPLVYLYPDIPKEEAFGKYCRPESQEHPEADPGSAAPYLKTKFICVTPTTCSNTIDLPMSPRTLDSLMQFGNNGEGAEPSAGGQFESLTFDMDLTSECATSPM
# No constants are given. Whether binding was seen depends on the method and setting. In cells and extracts the contact can be indirect. Here binding means that the protein was enriched with, or labelled near, the bait; the list need not be complete.
# Key:
# [1] = biological target: Flag‐USP20 (ubiquitin‐specific protease 20) (UniProt Q8C6M1); assay: affinity purification with mass spectrometry; Dataset I: HL‐1 cells transfected with Flag‐vector or Flag‐USP20, Ang II 1 µmol for 24 h; Co‐IP then LC‐MS/MS; proteins with a fold change greater than 2.0
# [2] = biological target: USP20, endogenous in mouse heart tissue (mouse (endogenous in heart tissue)) (UniProt Q8C6M1); assay: affinity purification with mass spectrometry; Dataset II: lysed heart tissues from Ang II‐induced mice, divided into two portions; Co‐IP of USP20 then LC‐MS/MS; proteins with a fold change greater than 2.0
binding [1],binding [2],Molecule
binds,binds,"STAT3, endogenous in mouse heart tissue and HL‐1 cells (from UniProt P42227 1-770)"
binds,binds,"XRRA1 (protein, UniProt Q3U3V8 1-786) MVSSGMYKMDNGKPCLNNCFPAKSLLRLPEEGRGHWIVVRKGSMKKGAAKASTEGQESQKKVSFDTGLKKISRRDSQADVLGHILDRSFLLKHHSARKPSDLCTINVSGMKFSKAKEKDFKHFTSVIYINASENLLPLDVFHTFPVLKELELAFNGIKMVYVKYGDFKTLEFLDLSFNSLTEEAICDLGILPHLRVLLLTGNGLTSLPPNMAVKEQEASMTSLTSKKYILRFPALETLMLDDNKLSNPSCFASLAGLRRLKKLSLDQNKIVRIPYLQQIQLRDGSGDWVTEGPNPQKELQPQMWIFETPDEQPNYTVLPMKKDVDRTEVVFSSYPGFSTSETAKVCSLPPMFEILPVKSLKARNQTLAPPFPELRYLSLAYNKIAKEDAVLPAALFPSLCELVFHNNPLVAHTRGIPPLLKSFLQDRLGIRLVRKKLVKPKHHMLMPRKESRKVKTYIPKVPKHSLVPHHLNMITDSPPSSLMPEPEHSTEDTSHEALFANEGPEGPSLTHRAFVPMPPICSDSTVHSEAVSHQSHTAGLVSSEHPSDDDAKSTESIFLTQVNELPSSTAHRENLEAVNDQRRPSTAPRETKRTRRKQTATSLHNKYDGYEELLTVKPDPAFLEPKGIQKNAQALHRMLKQPLICRSSKPRLDTFQKPYVPKEKRAGRIPILPPRKTRAQLLDDILIRMRDPRNVTEAPLGTVLQRRAQQRLVNQKQYREAKRLLKEFRARYRQLVRSSLRTVFAASPPPRPPTRRALSAGQPKLGRFLEFMDEFCQEPTASDSKE"
